Data as given in PubChem BioAssay AID1224829 (NIAID, 2016)
This is a random part of about 3,800 reagents tested. 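Calls cover raised and lowered translocation; gene median uses one vendor's three siRNAs; qiagen siRNAs acted more weakly than ambion siRNAs.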 The numbers tell different reagents against one gene apart. Not all columns of the deposit are shown. Reagent sequences are not shown.

- Screen: 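Secondary check of hits that alter LPS-induced p65 translocation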 (follow-up of hits)
- Cell system: mouse RAW264.7 G9 macrophage reporter cells
- Reagents: single siRNA against mouse genes, 100 nM
- Time to read-out: 2 days of siRNA knock-down, then 40 min of LPS before fixing
- Treatment: LPS (Salmonella minnesota R595) at 10 ng/ml
- Measured: 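Imaging of GFP-p65 after 40 min of LPS; nuclear over perinuclear ring intensity ratio, scaled to plate median and non-targeting control wells, given as z-score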
- Direction: p65 translocation z-score: higher = more nuclear NF-kappaB p65 after LPS
- Hit rule: 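An siRNA is called active when the mean z-score of its two replicates is above 2 or below -2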
- Calls: active = changed p65 translocation (either direction); inactive = no clear change

With 5330416C01Rik #1, siRNA vendor or control pool ambion single siRNA the deposit lists p65 translocation z-score, replicate mean -3.21; p65 translocation z-score, replicate 1 = -4.79; active.
5330416C01Rik #2, siRNA vendor or control pool ambion single siRNA showed p65 translocation z-score, replicate mean -1.32; p65 translocation z-score, replicate 1 = -0.211; inactive.
5330416C01Rik #3, siRNA vendor or control pool ambion single siRNA showed p65 translocation z-score, replicate mean -1.99; p65 translocation z-score, replicate 1 = -2.88; inactive.
For 5330416C01Rik #4, siRNA vendor or control pool qiagen single siRNA, the entry reads p65 translocation z-score, replicate mean -0.075; p65 translocation z-score, replicate 1 = -0.163; inactive.
5330416C01Rik #5, siRNA vendor or control pool qiagen single siRNA showed p65 translocation z-score, replicate mean 1.34; p65 translocation z-score, replicate 1 = 0.357; inactive.
5330416C01Rik #6, siRNA vendor or control pool qiagen single siRNA scored p65 translocation z-score, replicate mean -2.17; p65 translocation z-score, replicate 1 = -3.23; active.
With Rpf2 #1, siRNA vendor or control pool ambion single siRNA, the entry reads p65 translocation z-score, replicate mean -0.518; p65 translocation z-score, replicate 1 = -0.518; inactive.
Rpf2 #2, siRNA vendor or control pool ambion single siRNA gave p65 translocation z-score, replicate mean -0.765; p65 translocation z-score, replicate 1 = -0.954; inactive.
With Rpf2 #3, siRNA vendor or control pool ambion single siRNA, the values are p65 translocation z-score, replicate mean -0.727; p65 translocation z-score, replicate 1 = -1.31; inactive.
Rpf2 #4, siRNA vendor or control pool qiagen single siRNA gave p65 translocation z-score, replicate mean -0.173; p65 translocation z-score, replicate 1 = 0.313; inactive.
For Rpf2 #5, siRNA vendor or control pool qiagen single siRNA the deposit lists p65 translocation z-score, replicate mean 2.52; p65 translocation z-score, replicate 1 = 2.22; active.
With Rpf2 #6, siRNA vendor or control pool qiagen single siRNA, the entry reads p65 translocation z-score, replicate mean -4.85; p65 translocation z-score, replicate 1 = -1.08; active.
For Gzmf #1, siRNA vendor or control pool ambion single siRNA, the values are p65 translocation z-score, replicate mean -0.922; p65 translocation z-score, replicate 1 = -1.65; inactive.
With Gzmf #2, siRNA vendor or control pool ambion single siRNA, the entry reads p65 translocation z-score, replicate mean -7.39; p65 translocation z-score, replicate 1 = -7.94; active.
Gzmf #3, siRNA vendor or control pool ambion single siRNA showed p65 translocation z-score, replicate mean -1.45; p65 translocation z-score, replicate 1 = -0.672; inactive.
Gzmf #4, siRNA vendor or control pool qiagen single siRNA gave p65 translocation z-score, replicate mean -0.707; p65 translocation z-score, replicate 1 = -1.9; inactive.
Gzmf #5, siRNA vendor or control pool qiagen single siRNA scored p65 translocation z-score, replicate mean -1.22; p65 translocation z-score, replicate 1 = -1.22; inactive.
For Gzmf #6, siRNA vendor or control pool qiagen single siRNA the deposit lists p65 translocation z-score, replicate mean -3.19; p65 translocation z-score, replicate 1 = -3.19; active.

Hits, among the entries above:
5330416C01Rik #1, siRNA vendor or control pool ambion single siRNA — p65 translocation z-score, replicate mean: -3.21; p65 translocation z-score, replicate 1: -4.79; Outcome: active
5330416C01Rik #6, siRNA vendor or control pool qiagen single siRNA — p65 translocation z-score, replicate mean: -2.17; p65 translocation z-score, replicate 1: -3.23; Outcome: active
Rpf2 #5, siRNA vendor or control pool qiagen single siRNA — p65 translocation z-score, replicate mean: 2.52; p65 translocation z-score, replicate 1: 2.22; Outcome: active
Rpf2 #6, siRNA vendor or control pool qiagen single siRNA — p65 translocation z-score, replicate mean: -4.85; p65 translocation z-score, replicate 1: -1.08; Outcome: active
Gzmf #2, siRNA vendor or control pool ambion single siRNA — p65 translocation z-score, replicate mean: -7.39; p65 translocation z-score, replicate 1: -7.94; Outcome: active
Gzmf #6, siRNA vendor or control pool qiagen single siRNA — p65 translocation z-score, replicate mean: -3.19; p65 translocation z-score, replicate 1: -3.19; Outcome: active

The listing continues:
Hexb #1, siRNA vendor or control pool ambion single siRNA gave p65 translocation z-score, replicate mean 0.0628; p65 translocation z-score, replicate 1 = -0.684; inactive.
With Hexb #2, siRNA vendor or control pool ambion single siRNA, the values are p65 translocation z-score, replicate mean 2.81; p65 translocation z-score, replicate 1 = 2.54; active.
Hexb #3, siRNA vendor or control pool ambion single siRNA gave p65 translocation z-score, replicate mean -2.59; p65 translocation z-score, replicate 1 = -2.59; active.
For Hexb #4, siRNA vendor or control pool qiagen single siRNA the deposit lists p65 translocation z-score, replicate mean 0.562; p65 translocation z-score, replicate 1 = 0.169; inactive.
For Hexb #5, siRNA vendor or control pool qiagen single siRNA, the values are p65 translocation z-score, replicate mean -0.876; p65 translocation z-score, replicate 1 = -0.574; inactive.
Hexb #6, siRNA vendor or control pool qiagen single siRNA showed p65 translocation z-score, replicate mean 0.401; p65 translocation z-score, replicate 1 = 0.639; inactive.
With Hdac5 #1, siRNA vendor or control pool ambion single siRNA the deposit lists p65 translocation z-score, replicate mean -0.807; p65 translocation z-score, replicate 1 = -0.807; inactive.
Hdac5 #2, siRNA vendor or control pool ambion single siRNA showed p65 translocation z-score, replicate mean -1.73; p65 translocation z-score, replicate 1 = -1.28; inactive.
With Hdac5 #3, siRNA vendor or control pool ambion single siRNA, the entry reads p65 translocation z-score, replicate mean -1.99; p65 translocation z-score, replicate 1 = -2.15; inactive.
Hdac5 #4, siRNA vendor or control pool qiagen single siRNA gave p65 translocation z-score, replicate mean 0.433; p65 translocation z-score, replicate 1 = 0.265; inactive.
Hdac5 #5, siRNA vendor or control pool qiagen single siRNA showed p65 translocation z-score, replicate mean -1.85; p65 translocation z-score, replicate 1 = -1.67; inactive.
With Hdac5 #6, siRNA vendor or control pool qiagen single siRNA the deposit lists p65 translocation z-score, replicate mean -2.67; p65 translocation z-score, replicate 1 = -2.43; active.
A730013G03Rik #1, siRNA vendor or control pool ambion single siRNA gave p65 translocation z-score, replicate mean -2; p65 translocation z-score, replicate 1 = -1.83; active.
For A730013G03Rik #2, siRNA vendor or control pool ambion single siRNA the deposit lists p65 translocation z-score, replicate mean 2.86; p65 translocation z-score, replicate 1 = 4.02; active.
A730013G03Rik #3, siRNA vendor or control pool ambion single siRNA scored p65 translocation z-score, replicate mean -1.04; p65 translocation z-score, replicate 1 = 0.0578; inactive.
A730013G03Rik #4, siRNA vendor or control pool qiagen single siRNA gave p65 translocation z-score, replicate mean 1.38; p65 translocation z-score, replicate 1 = 0.696; inactive.
With A730013G03Rik #5, siRNA vendor or control pool qiagen single siRNA, the values are p65 translocation z-score, replicate mean 0.803; p65 translocation z-score, replicate 1 = -0.0901; inactive.
With A730013G03Rik #6, siRNA vendor or control pool qiagen single siRNA, the values are p65 translocation z-score, replicate mean -1.49; p65 translocation z-score, replicate 1 = -1.47; inactive.
